# From the supplement of paper PMC6411743
# ± gives the standard deviation of the averaged measurements. The list shows a part of the results, in another mix than the full data.
# Experiments:
# Assay in all cases: NP40-soluble protein abundance relative to vehicle (solubility fold change) (ratio); higher = more soluble protein in presence of ATP
# [1] = target: T1, C9JA69 and related entries (UniProt Q8WY36)
# T1 sequence (whole entry): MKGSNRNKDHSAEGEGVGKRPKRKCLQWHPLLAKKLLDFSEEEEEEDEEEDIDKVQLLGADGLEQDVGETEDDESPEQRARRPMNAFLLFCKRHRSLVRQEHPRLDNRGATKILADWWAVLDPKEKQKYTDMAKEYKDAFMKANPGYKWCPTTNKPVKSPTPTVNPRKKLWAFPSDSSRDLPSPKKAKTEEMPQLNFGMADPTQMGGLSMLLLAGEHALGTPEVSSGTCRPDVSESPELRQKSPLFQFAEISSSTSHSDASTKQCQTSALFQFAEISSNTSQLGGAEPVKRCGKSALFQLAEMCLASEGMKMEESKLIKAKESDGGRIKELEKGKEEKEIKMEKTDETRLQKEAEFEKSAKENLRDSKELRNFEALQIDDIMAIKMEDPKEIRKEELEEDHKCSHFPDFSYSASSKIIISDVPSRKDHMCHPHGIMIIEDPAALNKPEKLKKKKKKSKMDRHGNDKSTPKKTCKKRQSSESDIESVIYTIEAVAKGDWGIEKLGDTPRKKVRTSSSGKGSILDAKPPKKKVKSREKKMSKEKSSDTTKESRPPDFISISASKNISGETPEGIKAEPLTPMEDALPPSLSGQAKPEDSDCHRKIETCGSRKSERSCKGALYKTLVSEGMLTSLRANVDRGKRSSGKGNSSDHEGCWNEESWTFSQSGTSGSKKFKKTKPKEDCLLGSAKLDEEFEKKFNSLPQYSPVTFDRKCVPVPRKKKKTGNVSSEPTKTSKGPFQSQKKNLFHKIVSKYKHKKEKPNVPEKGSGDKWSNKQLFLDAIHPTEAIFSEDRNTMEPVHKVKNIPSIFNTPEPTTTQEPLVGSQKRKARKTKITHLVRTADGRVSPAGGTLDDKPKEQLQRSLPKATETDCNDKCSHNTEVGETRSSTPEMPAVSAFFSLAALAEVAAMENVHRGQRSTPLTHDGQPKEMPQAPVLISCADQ
# Summary of the method: (§1)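 Values are fold changes against the detergent-processed vehicle, based on vsn-normalised intensities. Jurkat crude lysate was treated at eight concentrations from 0.1 to 10 mM (10 min at room temperature, then 3 min at 37 °C), solubilised with 0.8% NP40 and benzonase, ultracentrifuged and analysed by TMT-labelled LC-MS/MS over three independent experiments.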
# [2] = target: T2, D6R9V8 and related entries (UniProt Q9UKY7)
# T2 sequence (whole entry): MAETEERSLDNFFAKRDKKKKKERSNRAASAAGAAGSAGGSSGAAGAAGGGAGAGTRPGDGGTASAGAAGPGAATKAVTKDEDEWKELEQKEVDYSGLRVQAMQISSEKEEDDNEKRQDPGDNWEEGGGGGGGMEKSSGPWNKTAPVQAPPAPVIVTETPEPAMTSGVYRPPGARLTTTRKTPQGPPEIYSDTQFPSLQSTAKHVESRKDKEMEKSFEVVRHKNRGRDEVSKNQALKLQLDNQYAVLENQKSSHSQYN
# Summary of the method: as §1
# [3] = target: T3, UniProt A2RTX5 and related entries
# T3 sequence (whole entry): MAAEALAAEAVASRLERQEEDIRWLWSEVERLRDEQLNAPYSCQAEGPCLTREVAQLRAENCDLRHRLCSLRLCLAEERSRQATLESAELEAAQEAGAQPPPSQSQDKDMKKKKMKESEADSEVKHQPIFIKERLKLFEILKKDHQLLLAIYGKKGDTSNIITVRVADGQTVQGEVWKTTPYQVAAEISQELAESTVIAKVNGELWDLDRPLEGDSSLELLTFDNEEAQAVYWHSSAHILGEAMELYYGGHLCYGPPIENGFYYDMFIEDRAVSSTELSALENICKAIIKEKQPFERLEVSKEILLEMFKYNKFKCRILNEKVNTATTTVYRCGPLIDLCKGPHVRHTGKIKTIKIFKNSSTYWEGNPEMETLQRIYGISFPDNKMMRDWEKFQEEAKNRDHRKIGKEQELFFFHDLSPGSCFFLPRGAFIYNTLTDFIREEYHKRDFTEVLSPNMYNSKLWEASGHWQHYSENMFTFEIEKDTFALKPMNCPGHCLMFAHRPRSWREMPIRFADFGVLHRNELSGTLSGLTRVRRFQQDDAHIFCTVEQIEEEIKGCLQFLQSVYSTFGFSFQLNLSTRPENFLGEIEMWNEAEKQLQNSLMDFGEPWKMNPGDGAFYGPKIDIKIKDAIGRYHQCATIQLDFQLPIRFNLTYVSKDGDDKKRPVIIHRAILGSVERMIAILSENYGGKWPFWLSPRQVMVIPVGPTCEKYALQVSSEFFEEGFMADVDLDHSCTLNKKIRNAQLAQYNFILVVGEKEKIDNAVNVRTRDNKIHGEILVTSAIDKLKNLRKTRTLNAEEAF
# Summary of the method: as §1
# [4] = target: T4, UniProt A3KN83 and related entries
# T4 sequence (whole entry): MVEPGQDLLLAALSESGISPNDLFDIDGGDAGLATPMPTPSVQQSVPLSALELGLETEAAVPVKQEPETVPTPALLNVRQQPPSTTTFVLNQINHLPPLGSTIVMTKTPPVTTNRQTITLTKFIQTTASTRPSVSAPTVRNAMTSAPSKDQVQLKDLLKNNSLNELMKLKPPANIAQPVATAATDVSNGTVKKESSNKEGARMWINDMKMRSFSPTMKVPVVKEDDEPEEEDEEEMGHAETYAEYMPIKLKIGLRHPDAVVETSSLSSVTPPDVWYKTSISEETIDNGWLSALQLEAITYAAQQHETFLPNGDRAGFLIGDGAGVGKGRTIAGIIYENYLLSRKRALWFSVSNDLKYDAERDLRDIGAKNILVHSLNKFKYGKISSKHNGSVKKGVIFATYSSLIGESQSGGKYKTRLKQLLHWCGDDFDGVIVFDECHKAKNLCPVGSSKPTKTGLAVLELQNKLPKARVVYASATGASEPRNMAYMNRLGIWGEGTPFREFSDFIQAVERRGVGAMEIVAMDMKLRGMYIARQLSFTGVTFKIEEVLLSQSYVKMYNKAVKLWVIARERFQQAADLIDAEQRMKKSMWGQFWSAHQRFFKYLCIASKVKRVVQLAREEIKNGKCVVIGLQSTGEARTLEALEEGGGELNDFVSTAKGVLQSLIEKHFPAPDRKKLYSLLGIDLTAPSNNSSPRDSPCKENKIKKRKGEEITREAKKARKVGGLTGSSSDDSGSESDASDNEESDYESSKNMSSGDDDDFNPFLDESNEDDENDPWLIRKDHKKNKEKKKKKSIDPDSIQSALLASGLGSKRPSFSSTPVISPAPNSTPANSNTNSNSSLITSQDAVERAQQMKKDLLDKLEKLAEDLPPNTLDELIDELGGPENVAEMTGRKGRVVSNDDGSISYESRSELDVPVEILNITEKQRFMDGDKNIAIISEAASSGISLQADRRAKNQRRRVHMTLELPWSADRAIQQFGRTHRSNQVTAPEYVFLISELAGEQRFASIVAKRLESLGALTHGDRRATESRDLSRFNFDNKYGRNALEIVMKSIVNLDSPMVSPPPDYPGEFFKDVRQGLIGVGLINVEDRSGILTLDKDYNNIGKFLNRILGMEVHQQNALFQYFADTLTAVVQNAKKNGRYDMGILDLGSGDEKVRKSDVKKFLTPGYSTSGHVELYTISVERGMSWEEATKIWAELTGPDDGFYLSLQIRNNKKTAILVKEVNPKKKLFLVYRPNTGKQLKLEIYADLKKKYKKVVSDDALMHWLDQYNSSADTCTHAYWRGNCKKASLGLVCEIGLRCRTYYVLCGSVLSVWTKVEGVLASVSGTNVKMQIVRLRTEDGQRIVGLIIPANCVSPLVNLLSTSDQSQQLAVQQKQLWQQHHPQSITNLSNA
# Summary of the method: as §1
smiles,measurement,setting,value
Nc1ncnc2c1ncn2[C@@H]1O[C@H](COP(=O)(O)OP(=O)(O)OP(=O)(O)O)[C@@H](O)[C@H]1O [adenosine triphosphate],NP40-soluble protein abundance,[1]; concentration: 1mM,1.06 ± 0.014
same,NP40-soluble protein abundance,[1]; concentration: 2mM,1.08 ± 0.022
same,NP40-soluble protein abundance,[1]; concentration: 4mM,1.11 ± 0.034
same,NP40-soluble protein abundance,[1]; concentration: 6mM,1.2 ± 0.047
same,NP40-soluble protein abundance,[1]; concentration: 8mM,1.1 ± 0.04
same,NP40-soluble protein abundance,[1]; concentration: 10mM,1.13 ± 0.074
same,NP40-soluble protein abundance,[2]; concentration: 1mM,0.892 ± 0.078
same,NP40-soluble protein abundance,[2]; concentration: 2mM,0.928 ± 0.07
same,NP40-soluble protein abundance,[2]; concentration: 4mM,0.903 ± 0.051
same,NP40-soluble protein abundance,[2]; concentration: 6mM,1.03 ± 0.09
same,NP40-soluble protein abundance,[2]; concentration: 8mM,0.898 ± 0.065
same,NP40-soluble protein abundance,[2]; concentration: 10mM,0.898 ± 0.087
same,NP40-soluble protein abundance,[3]; concentration: 1mM,0.975 ± 0.021
same,NP40-soluble protein abundance,[3]; concentration: 2mM,0.992 ± 0.077
same,NP40-soluble protein abundance,[3]; concentration: 4mM,0.998 ± 0.046
same,NP40-soluble protein abundance,[3]; concentration: 6mM,0.944 ± 0.077
same,NP40-soluble protein abundance,[3]; concentration: 8mM,0.98 ± 0.091
same,NP40-soluble protein abundance,[3]; concentration: 10mM,0.997 ± 0.086
same,NP40-soluble protein abundance,[4]; concentration: 1mM,0.957 ± 0.015
same,NP40-soluble protein abundance,[4]; concentration: 2mM,0.974 ± 0.049
same,NP40-soluble protein abundance,[4]; concentration: 4mM,0.949 ± 0.047
same,NP40-soluble protein abundance,[4]; concentration: 6mM,0.932 ± 0.079
same,NP40-soluble protein abundance,[4]; concentration: 8mM,0.94 ± 0.027
same,NP40-soluble protein abundance,[4]; concentration: 10mM,0.973 ± 0.05

# Shown bar-delimited: part of the list above
smiles | measurement | setting | value
Nc1ncnc2c1ncn2[C@@H]1O[C@H](COP(=O)(O)OP(=O)(O)OP(=O)(O)O)[C@@H](O)[C@H]1O [adenosine triphosphate] | NP40-soluble protein abundance | [1]; concentration: 1mM | 1.06 ± 0.014
same | NP40-soluble protein abundance | [1]; concentration: 2mM | 1.08 ± 0.022
